The values below come from the supplement of paper PMC11006884.

Amino acid sequences for entries named in this document (tags omitted). A change or cut given only in a name is not applied to a line headed by its entry.
UniProt Q00610: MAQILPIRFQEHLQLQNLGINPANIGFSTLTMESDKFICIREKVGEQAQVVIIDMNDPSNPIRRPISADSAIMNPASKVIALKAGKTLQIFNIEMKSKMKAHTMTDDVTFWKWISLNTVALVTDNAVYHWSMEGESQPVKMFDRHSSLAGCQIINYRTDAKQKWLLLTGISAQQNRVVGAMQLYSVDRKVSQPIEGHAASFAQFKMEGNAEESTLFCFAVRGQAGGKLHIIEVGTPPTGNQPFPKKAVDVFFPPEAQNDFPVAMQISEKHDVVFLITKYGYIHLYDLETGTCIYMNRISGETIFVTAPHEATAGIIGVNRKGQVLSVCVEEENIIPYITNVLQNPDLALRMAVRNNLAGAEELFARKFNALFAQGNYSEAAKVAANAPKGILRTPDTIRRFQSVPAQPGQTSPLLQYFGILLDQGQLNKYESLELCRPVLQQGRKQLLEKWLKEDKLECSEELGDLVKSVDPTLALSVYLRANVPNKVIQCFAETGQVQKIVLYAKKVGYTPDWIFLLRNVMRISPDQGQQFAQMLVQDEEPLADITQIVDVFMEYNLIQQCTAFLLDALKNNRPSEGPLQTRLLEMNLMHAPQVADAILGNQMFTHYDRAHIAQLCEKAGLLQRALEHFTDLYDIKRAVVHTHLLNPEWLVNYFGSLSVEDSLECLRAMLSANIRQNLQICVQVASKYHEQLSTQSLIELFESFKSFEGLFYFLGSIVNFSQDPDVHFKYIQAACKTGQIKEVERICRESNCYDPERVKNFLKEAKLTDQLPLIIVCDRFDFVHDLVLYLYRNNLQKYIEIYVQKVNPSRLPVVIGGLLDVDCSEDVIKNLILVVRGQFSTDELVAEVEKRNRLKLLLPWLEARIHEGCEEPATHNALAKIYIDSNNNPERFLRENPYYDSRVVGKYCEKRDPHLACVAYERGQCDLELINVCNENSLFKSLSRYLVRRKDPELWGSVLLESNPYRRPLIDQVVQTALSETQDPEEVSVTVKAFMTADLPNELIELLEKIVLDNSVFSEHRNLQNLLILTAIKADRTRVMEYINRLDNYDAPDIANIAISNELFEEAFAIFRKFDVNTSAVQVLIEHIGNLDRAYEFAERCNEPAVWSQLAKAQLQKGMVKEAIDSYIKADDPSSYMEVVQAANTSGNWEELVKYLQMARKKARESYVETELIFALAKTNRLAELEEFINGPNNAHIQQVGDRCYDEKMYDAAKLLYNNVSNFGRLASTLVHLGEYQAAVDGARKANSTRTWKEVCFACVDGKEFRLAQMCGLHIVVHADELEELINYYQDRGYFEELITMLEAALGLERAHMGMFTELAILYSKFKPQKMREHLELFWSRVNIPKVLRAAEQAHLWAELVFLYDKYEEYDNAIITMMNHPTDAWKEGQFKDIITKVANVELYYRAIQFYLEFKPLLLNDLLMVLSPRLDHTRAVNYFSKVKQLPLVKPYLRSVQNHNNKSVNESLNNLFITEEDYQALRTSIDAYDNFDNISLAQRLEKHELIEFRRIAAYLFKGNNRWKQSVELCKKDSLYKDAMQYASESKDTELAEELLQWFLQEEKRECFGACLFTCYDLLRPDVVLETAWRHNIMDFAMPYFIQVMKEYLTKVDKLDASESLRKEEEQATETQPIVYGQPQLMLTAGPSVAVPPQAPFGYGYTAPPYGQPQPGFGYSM
UniProt P78527, whole entry, looked up: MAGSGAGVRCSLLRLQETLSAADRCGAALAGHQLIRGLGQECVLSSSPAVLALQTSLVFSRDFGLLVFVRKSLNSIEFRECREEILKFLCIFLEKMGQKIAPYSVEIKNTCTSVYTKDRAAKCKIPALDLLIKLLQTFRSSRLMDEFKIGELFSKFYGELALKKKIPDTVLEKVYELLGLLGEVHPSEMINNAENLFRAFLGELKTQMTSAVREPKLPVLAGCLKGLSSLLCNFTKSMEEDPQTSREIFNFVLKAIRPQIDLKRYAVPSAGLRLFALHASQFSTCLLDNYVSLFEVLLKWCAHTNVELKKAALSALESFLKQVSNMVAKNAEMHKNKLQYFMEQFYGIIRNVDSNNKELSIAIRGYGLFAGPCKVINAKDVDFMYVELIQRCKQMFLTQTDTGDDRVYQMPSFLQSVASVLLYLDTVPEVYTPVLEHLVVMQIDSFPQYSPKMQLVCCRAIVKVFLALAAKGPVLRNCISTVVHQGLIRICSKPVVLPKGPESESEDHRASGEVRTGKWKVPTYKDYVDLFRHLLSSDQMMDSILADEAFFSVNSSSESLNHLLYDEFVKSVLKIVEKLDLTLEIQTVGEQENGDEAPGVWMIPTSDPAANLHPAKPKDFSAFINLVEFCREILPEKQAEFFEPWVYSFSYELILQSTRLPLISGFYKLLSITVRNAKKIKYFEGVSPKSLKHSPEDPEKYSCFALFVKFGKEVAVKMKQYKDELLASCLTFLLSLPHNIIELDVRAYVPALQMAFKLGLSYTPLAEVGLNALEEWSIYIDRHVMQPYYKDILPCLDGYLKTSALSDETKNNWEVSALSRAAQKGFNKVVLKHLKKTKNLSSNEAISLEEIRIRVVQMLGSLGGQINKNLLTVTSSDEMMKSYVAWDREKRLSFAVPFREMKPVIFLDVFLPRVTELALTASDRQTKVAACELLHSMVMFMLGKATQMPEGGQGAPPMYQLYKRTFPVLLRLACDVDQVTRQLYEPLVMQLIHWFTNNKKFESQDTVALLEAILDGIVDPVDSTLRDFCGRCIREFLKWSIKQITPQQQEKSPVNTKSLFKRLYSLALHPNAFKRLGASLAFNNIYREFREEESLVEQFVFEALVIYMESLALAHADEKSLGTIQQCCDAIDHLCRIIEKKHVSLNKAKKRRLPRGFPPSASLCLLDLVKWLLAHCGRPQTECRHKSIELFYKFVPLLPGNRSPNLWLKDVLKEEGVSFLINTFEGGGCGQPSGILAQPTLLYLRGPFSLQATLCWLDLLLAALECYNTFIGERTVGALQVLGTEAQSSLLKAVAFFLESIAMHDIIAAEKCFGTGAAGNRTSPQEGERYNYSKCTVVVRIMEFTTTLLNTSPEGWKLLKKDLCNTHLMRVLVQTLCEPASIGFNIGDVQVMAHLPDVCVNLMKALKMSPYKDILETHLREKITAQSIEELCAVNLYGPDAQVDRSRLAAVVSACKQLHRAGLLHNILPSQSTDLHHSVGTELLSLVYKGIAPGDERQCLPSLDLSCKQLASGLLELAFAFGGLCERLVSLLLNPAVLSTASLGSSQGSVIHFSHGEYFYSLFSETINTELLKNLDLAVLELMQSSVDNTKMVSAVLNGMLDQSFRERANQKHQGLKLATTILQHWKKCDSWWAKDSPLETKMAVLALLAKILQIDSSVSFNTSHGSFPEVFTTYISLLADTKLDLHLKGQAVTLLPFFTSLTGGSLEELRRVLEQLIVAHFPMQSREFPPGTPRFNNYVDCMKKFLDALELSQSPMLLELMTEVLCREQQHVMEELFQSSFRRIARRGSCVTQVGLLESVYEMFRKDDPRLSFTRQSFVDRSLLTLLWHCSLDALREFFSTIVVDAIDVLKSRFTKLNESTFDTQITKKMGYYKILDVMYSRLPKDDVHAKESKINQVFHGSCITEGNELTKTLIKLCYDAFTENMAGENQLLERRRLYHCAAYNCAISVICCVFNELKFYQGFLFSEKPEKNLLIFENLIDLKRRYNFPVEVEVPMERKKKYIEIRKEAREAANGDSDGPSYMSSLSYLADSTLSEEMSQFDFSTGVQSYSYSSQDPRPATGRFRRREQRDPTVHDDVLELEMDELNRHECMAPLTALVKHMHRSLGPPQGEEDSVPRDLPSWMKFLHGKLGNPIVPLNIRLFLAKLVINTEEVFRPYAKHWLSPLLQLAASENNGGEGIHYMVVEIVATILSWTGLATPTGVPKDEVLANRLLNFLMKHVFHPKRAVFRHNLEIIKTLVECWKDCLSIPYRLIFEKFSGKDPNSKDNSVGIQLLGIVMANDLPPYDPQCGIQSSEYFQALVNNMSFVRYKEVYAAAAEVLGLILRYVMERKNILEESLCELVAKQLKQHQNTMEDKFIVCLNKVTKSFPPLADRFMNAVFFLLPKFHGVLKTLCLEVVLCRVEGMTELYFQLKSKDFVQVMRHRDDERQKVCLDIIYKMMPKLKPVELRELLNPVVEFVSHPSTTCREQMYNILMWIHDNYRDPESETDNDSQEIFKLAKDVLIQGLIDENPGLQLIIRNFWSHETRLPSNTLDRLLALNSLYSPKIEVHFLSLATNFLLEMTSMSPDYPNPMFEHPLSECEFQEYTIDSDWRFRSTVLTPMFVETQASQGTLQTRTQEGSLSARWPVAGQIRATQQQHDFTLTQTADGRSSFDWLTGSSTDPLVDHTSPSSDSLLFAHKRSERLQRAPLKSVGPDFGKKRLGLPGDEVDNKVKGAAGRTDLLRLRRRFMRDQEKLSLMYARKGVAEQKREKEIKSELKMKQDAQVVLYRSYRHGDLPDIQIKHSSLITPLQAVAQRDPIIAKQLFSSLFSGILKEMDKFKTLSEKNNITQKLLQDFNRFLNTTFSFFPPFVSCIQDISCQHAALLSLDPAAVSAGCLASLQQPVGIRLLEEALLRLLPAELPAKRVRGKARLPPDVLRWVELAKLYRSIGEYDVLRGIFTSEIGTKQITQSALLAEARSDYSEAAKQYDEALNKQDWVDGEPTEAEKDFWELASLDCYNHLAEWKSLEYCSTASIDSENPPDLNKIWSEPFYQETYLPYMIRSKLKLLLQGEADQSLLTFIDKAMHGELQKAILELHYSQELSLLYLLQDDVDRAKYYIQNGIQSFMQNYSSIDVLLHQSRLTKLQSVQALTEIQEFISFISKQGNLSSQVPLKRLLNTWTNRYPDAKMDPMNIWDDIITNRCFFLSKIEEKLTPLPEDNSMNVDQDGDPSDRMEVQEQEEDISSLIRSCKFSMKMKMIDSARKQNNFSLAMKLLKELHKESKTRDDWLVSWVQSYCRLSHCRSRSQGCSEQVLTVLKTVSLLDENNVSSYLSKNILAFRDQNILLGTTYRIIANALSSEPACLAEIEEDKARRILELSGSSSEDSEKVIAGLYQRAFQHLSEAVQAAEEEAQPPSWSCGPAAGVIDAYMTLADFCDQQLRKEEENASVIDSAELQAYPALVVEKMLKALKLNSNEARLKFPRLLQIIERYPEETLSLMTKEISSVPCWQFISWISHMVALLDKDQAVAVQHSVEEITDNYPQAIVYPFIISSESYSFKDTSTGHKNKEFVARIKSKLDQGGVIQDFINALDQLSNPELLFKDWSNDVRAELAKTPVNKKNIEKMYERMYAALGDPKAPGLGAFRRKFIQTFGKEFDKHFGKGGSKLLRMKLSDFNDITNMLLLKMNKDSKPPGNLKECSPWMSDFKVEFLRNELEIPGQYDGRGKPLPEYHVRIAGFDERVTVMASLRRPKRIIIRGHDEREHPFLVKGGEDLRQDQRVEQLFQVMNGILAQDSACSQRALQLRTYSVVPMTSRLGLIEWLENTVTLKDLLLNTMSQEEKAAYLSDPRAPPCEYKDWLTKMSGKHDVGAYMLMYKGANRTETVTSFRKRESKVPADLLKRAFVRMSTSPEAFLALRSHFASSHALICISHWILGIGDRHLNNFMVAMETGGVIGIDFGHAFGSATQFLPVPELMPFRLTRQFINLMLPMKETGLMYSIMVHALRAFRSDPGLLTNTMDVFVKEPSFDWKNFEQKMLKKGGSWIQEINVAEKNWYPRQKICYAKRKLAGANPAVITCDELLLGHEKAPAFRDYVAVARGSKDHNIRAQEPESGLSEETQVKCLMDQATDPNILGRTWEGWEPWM
UniProt Q01813: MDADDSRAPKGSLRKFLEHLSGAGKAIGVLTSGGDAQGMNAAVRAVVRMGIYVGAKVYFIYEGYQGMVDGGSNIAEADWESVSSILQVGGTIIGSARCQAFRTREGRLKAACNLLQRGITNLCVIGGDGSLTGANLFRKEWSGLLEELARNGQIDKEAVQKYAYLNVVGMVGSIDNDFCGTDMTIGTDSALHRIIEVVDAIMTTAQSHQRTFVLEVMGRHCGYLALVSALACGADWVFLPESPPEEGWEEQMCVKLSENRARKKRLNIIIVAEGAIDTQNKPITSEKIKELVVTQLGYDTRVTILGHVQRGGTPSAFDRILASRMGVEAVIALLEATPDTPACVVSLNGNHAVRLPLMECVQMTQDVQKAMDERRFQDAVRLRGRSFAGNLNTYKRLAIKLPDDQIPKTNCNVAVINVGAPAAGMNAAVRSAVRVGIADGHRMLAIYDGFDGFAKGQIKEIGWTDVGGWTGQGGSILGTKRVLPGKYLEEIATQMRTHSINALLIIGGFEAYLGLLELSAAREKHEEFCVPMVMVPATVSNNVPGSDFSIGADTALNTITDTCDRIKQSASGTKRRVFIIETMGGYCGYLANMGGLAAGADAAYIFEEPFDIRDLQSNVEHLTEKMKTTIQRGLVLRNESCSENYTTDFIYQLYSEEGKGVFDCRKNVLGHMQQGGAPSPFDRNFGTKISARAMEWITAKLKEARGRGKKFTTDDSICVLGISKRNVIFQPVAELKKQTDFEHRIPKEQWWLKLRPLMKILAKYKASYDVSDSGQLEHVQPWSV

The targets with a hit were mostly taken out for another list; the other results follow. This is a noisy data set. Only a part is listed here, and it is no random draw.

Compound in this experiment: COC(=O)/C=C/c1ccccc1 [methyl cinnamate]
The experiment can be described thus: log2 ratio of iodoacetamide-alkyne labeling of the cysteine site, DMSO over compound (competition); higher = stronger covalent engagement of the cysteine by the compound, active = 1 or more. Particulars: 500 µM; treatment time 1 h; system: HEK293T cell lysate. In a few lines:
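HEK293T lysate (2 mg/mL) was incubated with electrophile (500 µM) or vehicle for 1 h at ambient temperature and then with iodoacetamide alkyne for 1 h. Labelled proteins were clicked to sCIP-TMT reagents, pooled, digested, enriched on streptavidin and measured by Orbitrap Eclipse LC-MS/MS with FAIMS, with FragPipe quantification. The per-cysteine log2 competition ratio is mean control-channel reporter intensity over mean compound-channel reporter intensity. Across three replicates with duplicate channels, cysteines quantified in only one replicate were excluded.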
In the case of UniProt P62753_C83, the “log2 ratio of iodoacetamide-alkyne labeling” value (shortened to “log2 ratio”) is inactive: 0.187.
Next, EIF4G2 C253 (UniProt P78344): inactive: 0.156; UniProt P68363_C20: inactive: 0.00474.
On to UniProt Q02040_C549, for which the “log2 ratio” value was inactive: 0.519.
Next, UniProt P62306_C66: inactive: 0.134; UniProt P62487_C106: inactive: 0.0394.
On to CLTC C753 (UniProt Q00610), for which the “log2 ratio” value was inactive: 0.096.
Next, UniProt P78527_C2342: inactive: 0.168.
Next, PITX1 C77 (UniProt P78337): inactive: 0.679; UniProt P78527_C1432: inactive: 0.0858.
Next, EWSR1 C529 (UniProt Q01844): inactive: 0.0711; CNBP C161 (UniProt P62633): inactive: -0.00608.
Take UniProt P78527_C703: the “log2 ratio” value is inactive: 0.182.
Next, FKBP1A C23 (UniProt P62942): inactive: -0.0568; HNRNPU C594 (UniProt Q00839): inactive: 0.0385.
Next, CLTC C666 (UniProt Q00610): inactive: -0.108.
Next, FKBP3 C133 (UniProt Q00688): inactive: -0.0861; CNBP C111 (UniProt P62633): inactive: 0.0375; UniProt P78527_C1791: inactive: 0.00626.
Take UniProt P62826_C120: the “log2 ratio” value was inactive: -0.239.
For the target PFKP C411 (UniProt Q01813), the “log2 ratio” value was inactive: -0.0345.
Take UniProt P62701_C181: the “log2 ratio” value was inactive: 0.0942.
Next, UniProt P62913_C25: inactive: 0.16.
On to UniProt P84095_C157, for which the “log2 ratio” value is inactive: 0.119.
For UniProt P62701_C124, the “log2 ratio” value is inactive: 0.187.
For the target HMGCS1 C12 (UniProt Q01581), the “log2 ratio” value was inactive: 0.0575.
Next, PFKP C360 (UniProt Q01813): inactive: 0.191; CLTC C934 (UniProt Q00610): inactive: 0.0625; HNRNPU C391 (UniProt Q00839): inactive: -0.255.
As for PFKP C641 (UniProt Q01813), the “log2 ratio” value was inactive: -0.0401.
With RPL7A C174 (UniProt P62424), the “log2 ratio” value was inactive: -0.349.
OGDH C283 (UniProt Q02218): the “log2 ratio” value is inactive: 0.0413.
Next, CSNK2B C114 (UniProt P67870): inactive: -0.156.
For AMPD2 C123 (UniProt Q01433), the “log2 ratio” value is inactive: 0.173.
Next, UniProt P62995_C119: inactive: 0.0195; RPS21 C17 (UniProt P63220): inactive: 0.493.
Next, UniProt P68363_C376: inactive: 0.0636; UniProt P78527_C3281: inactive: 0.2.
